This test has as its target GABARAP (mouse (endogenous in BMDMs)) (UniProt Q9DCD6). Briefly: co-IP; 250 ug whole-cell lysate of Cre- BMDMs in RIPA buffer incubated with 8 ug anti-GABARAP antibody (Abcam ab191888) overnight at 4 C, then protein A/G agarose beads 1-2 h at 4 C, three washes with RIPA buffer; bead-bound proteins blotted with anti-WDFY3; both proteins endogenous; Cre+ (Wdfy3 knockout) lysate as control.

The chains behind the UniProt entries cited, without tags or fusion partners.
UniProt Q9DCD6: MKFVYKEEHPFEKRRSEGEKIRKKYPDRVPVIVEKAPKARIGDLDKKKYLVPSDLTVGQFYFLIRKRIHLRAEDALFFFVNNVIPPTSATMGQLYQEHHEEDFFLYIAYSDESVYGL
UniProt Q6VNB8: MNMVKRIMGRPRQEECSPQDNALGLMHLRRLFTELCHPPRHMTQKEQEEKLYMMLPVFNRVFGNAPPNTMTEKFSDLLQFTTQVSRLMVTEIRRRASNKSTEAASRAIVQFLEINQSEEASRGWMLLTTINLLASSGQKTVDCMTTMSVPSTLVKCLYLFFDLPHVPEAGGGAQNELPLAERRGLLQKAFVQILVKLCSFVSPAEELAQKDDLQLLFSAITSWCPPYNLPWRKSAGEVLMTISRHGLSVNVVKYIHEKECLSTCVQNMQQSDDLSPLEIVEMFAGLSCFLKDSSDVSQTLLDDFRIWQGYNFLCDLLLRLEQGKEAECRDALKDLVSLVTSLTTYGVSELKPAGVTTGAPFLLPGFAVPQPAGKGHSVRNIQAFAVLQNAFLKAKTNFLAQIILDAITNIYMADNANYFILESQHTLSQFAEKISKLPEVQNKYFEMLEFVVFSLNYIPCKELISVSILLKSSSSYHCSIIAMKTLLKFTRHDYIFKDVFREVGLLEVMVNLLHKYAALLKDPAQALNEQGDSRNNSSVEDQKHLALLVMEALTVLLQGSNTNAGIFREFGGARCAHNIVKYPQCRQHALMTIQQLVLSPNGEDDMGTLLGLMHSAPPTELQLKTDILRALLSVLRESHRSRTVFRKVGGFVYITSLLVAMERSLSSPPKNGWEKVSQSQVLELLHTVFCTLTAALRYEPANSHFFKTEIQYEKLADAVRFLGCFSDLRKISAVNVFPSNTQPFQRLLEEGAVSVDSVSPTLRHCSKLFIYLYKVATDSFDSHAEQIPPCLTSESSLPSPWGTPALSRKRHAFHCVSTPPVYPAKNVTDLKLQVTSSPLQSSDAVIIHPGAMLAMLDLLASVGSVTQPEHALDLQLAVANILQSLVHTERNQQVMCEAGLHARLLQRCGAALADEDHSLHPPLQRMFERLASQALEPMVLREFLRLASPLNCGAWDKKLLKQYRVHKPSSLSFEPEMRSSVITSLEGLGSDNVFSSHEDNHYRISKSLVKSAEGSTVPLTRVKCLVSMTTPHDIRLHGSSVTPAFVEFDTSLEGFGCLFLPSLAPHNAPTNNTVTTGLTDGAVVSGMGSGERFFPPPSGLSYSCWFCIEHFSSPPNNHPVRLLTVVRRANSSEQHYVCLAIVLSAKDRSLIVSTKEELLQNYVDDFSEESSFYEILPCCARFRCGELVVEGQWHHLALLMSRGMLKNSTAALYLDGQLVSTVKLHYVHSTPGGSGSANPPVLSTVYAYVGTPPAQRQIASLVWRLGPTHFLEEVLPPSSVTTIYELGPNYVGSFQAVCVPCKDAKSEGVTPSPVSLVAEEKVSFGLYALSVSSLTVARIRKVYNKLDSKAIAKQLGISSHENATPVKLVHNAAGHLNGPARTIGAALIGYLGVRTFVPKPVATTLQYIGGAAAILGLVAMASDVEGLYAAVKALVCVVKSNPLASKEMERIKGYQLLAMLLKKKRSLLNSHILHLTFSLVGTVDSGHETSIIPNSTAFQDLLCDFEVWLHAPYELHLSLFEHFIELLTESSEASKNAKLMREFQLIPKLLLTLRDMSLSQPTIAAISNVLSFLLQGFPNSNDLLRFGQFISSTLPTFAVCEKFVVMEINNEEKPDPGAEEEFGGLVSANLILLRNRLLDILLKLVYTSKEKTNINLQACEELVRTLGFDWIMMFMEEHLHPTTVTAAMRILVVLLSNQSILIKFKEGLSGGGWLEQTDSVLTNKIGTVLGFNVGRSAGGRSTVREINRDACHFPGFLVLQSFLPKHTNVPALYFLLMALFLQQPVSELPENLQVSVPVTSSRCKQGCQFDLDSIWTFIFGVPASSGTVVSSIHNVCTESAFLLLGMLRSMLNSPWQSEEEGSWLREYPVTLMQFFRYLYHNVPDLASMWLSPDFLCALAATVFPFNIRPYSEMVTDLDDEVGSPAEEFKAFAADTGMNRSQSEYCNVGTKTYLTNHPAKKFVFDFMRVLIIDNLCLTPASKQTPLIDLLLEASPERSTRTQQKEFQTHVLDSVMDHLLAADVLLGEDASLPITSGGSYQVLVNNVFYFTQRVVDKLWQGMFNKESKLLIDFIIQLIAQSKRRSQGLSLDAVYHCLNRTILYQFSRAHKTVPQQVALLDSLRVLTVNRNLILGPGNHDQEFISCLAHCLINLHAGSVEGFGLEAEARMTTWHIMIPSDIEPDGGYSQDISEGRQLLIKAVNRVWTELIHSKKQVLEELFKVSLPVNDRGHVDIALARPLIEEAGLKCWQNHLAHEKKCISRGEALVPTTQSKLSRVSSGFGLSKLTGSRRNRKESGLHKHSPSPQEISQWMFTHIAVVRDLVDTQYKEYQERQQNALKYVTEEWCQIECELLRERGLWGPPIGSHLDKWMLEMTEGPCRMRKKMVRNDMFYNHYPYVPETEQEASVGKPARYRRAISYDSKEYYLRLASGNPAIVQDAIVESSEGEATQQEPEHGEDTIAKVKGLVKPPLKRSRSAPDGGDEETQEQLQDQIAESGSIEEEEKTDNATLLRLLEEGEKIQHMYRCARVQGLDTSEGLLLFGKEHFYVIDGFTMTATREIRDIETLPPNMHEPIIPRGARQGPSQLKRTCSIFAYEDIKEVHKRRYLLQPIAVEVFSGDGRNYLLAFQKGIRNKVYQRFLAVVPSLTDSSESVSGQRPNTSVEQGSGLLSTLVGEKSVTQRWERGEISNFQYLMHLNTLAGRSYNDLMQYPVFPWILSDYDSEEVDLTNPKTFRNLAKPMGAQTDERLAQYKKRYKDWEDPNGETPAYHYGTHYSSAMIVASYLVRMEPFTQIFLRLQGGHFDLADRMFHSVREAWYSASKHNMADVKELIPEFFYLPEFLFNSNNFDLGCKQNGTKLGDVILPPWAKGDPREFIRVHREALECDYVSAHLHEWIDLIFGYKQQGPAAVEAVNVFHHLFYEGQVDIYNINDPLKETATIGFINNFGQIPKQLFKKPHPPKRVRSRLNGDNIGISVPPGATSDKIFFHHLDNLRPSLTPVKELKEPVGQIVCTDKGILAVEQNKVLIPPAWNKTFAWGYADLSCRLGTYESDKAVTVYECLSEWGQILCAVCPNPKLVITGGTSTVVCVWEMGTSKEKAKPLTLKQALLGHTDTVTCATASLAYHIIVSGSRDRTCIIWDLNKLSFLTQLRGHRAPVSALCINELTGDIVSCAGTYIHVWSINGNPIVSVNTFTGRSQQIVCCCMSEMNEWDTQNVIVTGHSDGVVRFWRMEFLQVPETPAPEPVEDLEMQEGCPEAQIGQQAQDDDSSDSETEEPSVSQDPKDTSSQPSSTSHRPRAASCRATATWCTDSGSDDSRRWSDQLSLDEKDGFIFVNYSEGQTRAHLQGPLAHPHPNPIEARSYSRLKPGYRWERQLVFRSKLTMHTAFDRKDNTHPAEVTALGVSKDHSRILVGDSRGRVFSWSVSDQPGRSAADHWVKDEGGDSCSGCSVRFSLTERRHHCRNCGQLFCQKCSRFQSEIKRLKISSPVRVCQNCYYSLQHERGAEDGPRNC

These are yes or no findings as the source states them, for the method shown. In cells and extracts the contact can be indirect. Some binding calls cover weakened binding; strength is not graded here.

Take “WDFY3 (WD repeat and FYVE domain containing 3) (from UniProt Q6VNB8 1-3508)”: the binding entry is given as “binds”.

The values above are taken from article PMC9789999.
